According to patent US20040143004A1, “Metronomic dosing of taxanes” (priority 2004, published 2004):
Some entries share one result that the patent states for a list of compounds.

System: endothelial cells in MATRIGEL plugs
Details: 24 mg/kg (MTD), iv, q2dx5

In the case of CC(=O)O[C@H]1C(=O)[C@@]2(C)[C@H]([C@H](OC(=O)c3ccccc3)[C@]3(O)C[C@H](OC(=O)[C@H](O)[C@@H](NC(=O)c4ccccc4)c4ccccc4)C(C)=C1C3(C)C)[C@]1(OC(C)=O)CO[C@@H]1C[C@@H]2O [TAXOL, paclitaxel, reference compound], the “reduction in endothelial cell number in MATRIGEL plugs vs control” value is reported as “greater than 50%”.
